Test results reported in US20080076166A1, “Method For Producing Polyunsaturated Fatty Acids In Transgenic Organisms” (priority 2004, published 2008).
At least one compound was matched to its structure with a doubt left.

How the values were obtained:
[1] = tested on: desaturase OtDes6.1 (Δ6-desaturase); format: cell-based, Ostreococcus tauri
Excerpt: (§1) The Saccharomyces cerevisiae strain 334 was transformed with the vector pYES2.1-OtD6.1 by electroporation (1500 V). A yeast which was transformed with the blank vector pYES2 was used as control. The transformed yeasts were selected on complete minimal dropout uracil medium (CMdum) agar plates supplemented with 2% glucose. After the selection, in each case three transformants were selected for the further functional expression.
(§2) To express the OtD6.1 desaturase, precultures consisting of in each case 5 ml of CMdum dropout uracil liquid medium supplemented with 2% (w/v) raffinose were initially inoculated with the selected transformants and incubated for 2 days at 30° C. and 200 rpm. Then, 5 ml of CMdum (dropout uracil) liquid medium supplemented with 2% raffinose and 300 μM various fatty acids were inoculated with the precultures to an OD600 of 0.05. […]
The substrate specificity of OtDes6.1 was determined after expression and after feeding various fatty acids. The substrates fed can be detected in large amounts in all of the transgenic yeasts. […]
The yeasts which had been transformed with the vector pYES2-OtDes6.1 were grown in minimal medium in the presence of the stated fatty acids. […] Thereafter, the FAMEs were analyzed via GLC. […] The activity corresponds to the conversion rate calculated using the formula [[…]].

[2] = tested on: elongase OtElo1 (Δ5-elongase); format: cell-based, Ostreococcus tauri; conditions: Table 2, FIG. 2 and 3
Excerpt: as §1, with “pOTE1 or pOTE2, respectively,” for “pYES2.1-OtD6.1”
as §2, with “Ot elongases,” for “OtD6.1 desaturase,”, “0.05. Expression was induced by the addition of 2% (w/v) galactose. The cultures were incubated for a further 96 hours at 20° C.” for “0.05.”
The substrate specificity of OtElo1 was determined after expression and after feeding various fatty acids (Tab. 2). The substrates fed can be detected in large amounts in all of the transgenic yeasts. […]
The yeasts which had been transformed with the vector pOTE1 were grown in minimal medium in the presence of the fatty acids stated. […] Thereafter, the FAMEs were analyzed by GLC. […]

| Compound | Activity of OtDes6.1, in words [1] | Elongation by OtElo1, in words [2] |
| --- | --- | --- |
| CCCCCCCC/C=C\CCCCCCCC(=O)O [18:1^Δ9, oleic acid] | markedly less pronounced |  |
| CC/C=C\C/C=C\C/C=C\C/C=C\C/C=C\CCCC(=O)O [20:5^Δ5,8,11,14,17, eicosapentaenoic acid] |  | preferentially |
